Results published in US11401295B2, “Cyclic dinucleotide compound and uses thereof” (SHANGHAI JEMINCARE PHARMACEUTICALS CO., LTD., priority 2018, dated 2022).
For at least one compound, name, drawing or mass did not settle the structure.

System: MC38 colon cancer cells
Assay: In vivo pharmacodynamic assay 3: MC38 colon cancer syngeneic mouse model
Conditions: C57BL/6 mice, intratumoral, 30 ug per mouse (three times)

BP1(=O)OC[C@H]2O[C@@H](n3cc(F)c4c(=O)[nH]cnc43)[C@@H](F)C2OP(B)(=O)OC[C@H]2O[C@@H](n3cnc4c(N)ncnc43)[C@@H](F)C2O1 (stereo partly shown) [Compound 6C]
tumor volume: all disappeared
